# Experimental data taken from PubChem BioAssay AID493014 (National Center for Advancing Translational Sciences (NCATS), 2011).
# The other results are listed elsewhere or left out. Shown are side measurements of this screen, not its main read-out; they come without a call. Most of these compounds were active or inconclusive in the main read-out, so they are no random draw. Words in brackets tell the shape of the fitted curve; partial curves, single points and poor fits give uncertain potencies.
# Assay: qHTS Assay to Find Inhibitors of Chronic Active B-Cell Receptor Signaling
# Details: ABC-DLBCL IkBa-CBG/CBR reporter, luminescence ratio (green luciferase fused to IkBa over red control in TMD8 lymphoma cells), 4 h; measured here: CBR red luminescence, cell number
# Outline: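 TMD8 ABC-DLBCL cells carrying doxycycline-inducible green luciferase fused to IkappaBalpha plus unfused red luciferase were exposed to compounds (up to 46 uM) for 4 hrs at 37C. Activity came from the overlap-corrected green/red luminescence ratio.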
row,SMILES,AC50
1,COc1cc(NC(=O)c2cc([N+](=O)[O-])ccc2N2CCOCC2)ccc1NC(=O)c1ccco1,"0.501 µM [falling, full curve, poor fit]"
2,COc1cc(O)cc2cc3c(c(O)c12)C(=O)CC(C)(O)O3 (stereo not drawn),"12.6 µM [falling, partial curve]"
3,CC1CCc2c(c3ccccc3n2C(=O)CCl)C1 (stereo not drawn),"35.5 µM [rising, single point]"
4,O=C(NCCCN1CCCC1=O)NC12CC3CC(CC(C3)C1)C2,"0.92 µM [rising, full curve, poor fit]"
5,Cc1nc(S/C(=C\c2ccc(-c3ccc(C(=O)O)c(Cl)c3)o2)C(=O)O)n[nH]1,"35.5 µM [falling, single point]"
6,CCOC(=O)c1ccccc1NC(=O)COC(=O)CC(C)(C)CC1=NS(=O)(=O)c2ccccc2N1,"22.4 µM [falling, single point]"
7,Cc1ccc(CNC(=O)COC(=O)CN2C(=O)C3CC=CCC3C2=O)cc1 (stereo not drawn),"16.4 µM [rising, single point]"
8,Cc1ccnc(Nc2nc(-c3ccc(O)c(O)c3)cs2)c1,"11.2 µM [falling, partial curve, poor fit]"
9,O=C(CCCCCN1C(=O)[C@@H]2Cc3ccccc3CN2C1=O)Nc1ccccc1F,"5.01 µM [falling, full curve]"
10,O=C(CC1NCCc2ccccc21)Nc1ccc(Oc2ccccc2)cc1 (stereo not drawn),"5.62 µM [falling, partial curve, poor fit]"
11,COc1ccccc1N1CCN(C(=O)C(C)N(c2ccccc2)S(C)(=O)=O)CC1 (stereo not drawn),"18.4 µM [rising, single point]"
12,COc1ccccc1N1CCN(Cc2nc(N)nc(Nc3ccc(C)c(Cl)c3)n2)CC1,"0.651 µM [rising, full curve, poor fit]"
13,O=C(Nc1ccc(N2CCCCC2)cc1)c1ccc(F)cc1,"29.1 µM [falling, single point]"
14,COCCNC(=O)c1ccc2c(Cl)c3c(nc2c1)CCC3,"3.16 µM [rising, partial curve, poor fit]"
15,COc1ccc(-c2oc(=O)c3cc(OC)c(OC)cc3c2C#CC2(O)CCCCC2)cc1,"18.4 µM [falling, single point]"
16,COc1ccc(OC(=O)CN2C(=O)C3C4CCC(C4)C3C2=O)cc1 (stereo not drawn),"9.2 µM [rising, partial curve, poor fit]"
17,C#CCOCCOCCOCCNc1nc(N2CCN(C(=O)CCCCCCCCCCNC(=O)[C@H](CCCCN)n3cc(CCO)nn3)CC2)nc(N2CCN(C(=O)CCCCCCCCCCNC(=O)[C@H](CCCN=C(N)N)n3cc(C[C@@H](C)CC)nn3)CC2)n1,"18.4 µM [rising, partial curve]"
18,COc1ccc(CC(=O)Nc2sc3c(c2C(N)=O)CCCC3)cc1,"25.1 µM [falling, single point]"
19,CCCc1c(C(=O)Nc2ccc(F)cc2C)cnn1-c1ccccc1,"6.31 µM [falling, partial curve, poor fit]"
20,Cc1cc2nc(CCN(C(=S)NCC3CCCO3)C3CCCC3)[nH]c2cc1C (stereo not drawn),"35.5 µM [falling, single point]"
21,COc1cccc(NC(=O)c2oc3ccc(S(=O)(=O)N4CCCCCC4)cc3c2C)c1,"7.08 µM [falling, partial curve, poor fit]"

row,SMILES,AC50
1,O=C(COC(=O)c1ccco1)c1ccc(Cl)cc1,"35.5 µM [rising, single point]"
2,Cc1cc(C)cc(NC(=O)N2CCN(Cc3ccc4c(c3)OCO4)CC2)c1,"15.8 µM [falling, single point]"
3,COc1ccc(C2=NS(=O)(=O)N(C)C(C(=O)N3CCc4ccccc4C3)=C2)cc1OC,"12.6 µM [falling, single point]"
4,CC(=O)Oc1ccccc1N1C(=O)c2ccc(C(=O)O)cc2C1=O,"6.51 µM [falling, partial curve]"
5,N#Cc1c(N2CCN(C(=O)c3ccco3)CC2)nc(-c2ccccc2)c2c1CCCC2,"14.1 µM [falling, partial curve, poor fit]"
6,O=C(N/N=C/c1ccncc1)c1ccccn1,"8.91 µM [falling, partial curve, poor fit]"
7,CCN(CC)CCn1c(=N)n(CC(=O)c2ccc(Br)s2)c2ccccc21,"10 µM [falling, partial curve]"
8,CSc1ccccc1OCc1cc(C(=O)N2CCC(Oc3cccnc3)CC2)no1,"35.5 µM [falling, single point]"
9,O=S(=O)(NCC(c1ccco1)N1CCN(c2ccccc2)CC1)c1cc(F)ccc1F (stereo not drawn),"0.112 µM [rising, full curve, poor fit]"
10,COCCNCCCCOc1ccccc1-c1ccccc1,"20.6 µM [falling, partial curve, poor fit]"
11,CCCCc1nc2ccccc2c(N)c1CCC (tested in a mixture with another compound),"29.1 µM [falling, single point]"
12,Cc1ccccc1OCC(=O)N=Nc1c(O)n(C)c2ccccc12,"35.5 µM [rising, single point]"
13,O=C(Nc1ccc(F)cc1F)c1ccc(-n2cncn2)nc1,"6.51 µM [falling, single point]"
14,COc1cc(SC)ccc1C(=O)OC(C)C(=O)Nc1ccc(NC(C)=O)cc1 (stereo not drawn),"10 µM [falling, partial curve, poor fit]"
15,O=C(/C=C/c1ccccc1)NCCc1ccc2c(c1)OCCO2,"29.1 µM [falling, single point]"
16,CCc1cc(C(=O)O)c(NC(=O)c2cc(OC)c(OC)c(OC)c2)s1,"12.6 µM [falling, partial curve]"
17,O=C(O)C1CCN(C(=O)CSc2nc3cc(Cl)ccc3c(=O)n2Cc2ccccc2)CC1,"8.91 µM [falling, partial curve, poor fit]"
18,O=C(NCCCN1CCCC1=O)C1CCN(S(=O)(=O)c2cccc(Cl)c2Cl)CC1,"23.1 µM [rising, partial curve, poor fit]"
19,CCCCOc1ccc(CSc2nncn2N)cc1,"35.5 µM [rising, single point]"
20,CCCCNc1oc(-c2ccc(OC)cc2)nc1S(=O)(=O)c1ccccc1,"9.2 µM [falling, partial curve]"
21,S=c1[nH]nc(-c2ccc(Cl)cc2Cl)n1-c1ccccc1,"2.24 µM [falling, full curve, poor fit]"

row,SMILES,AC50
1,CNC(=O)c1cc(NC(=O)CCn2nc(-c3ccc(C)cc3)c3ccccc3c2=O)ccc1OC,"3.16 µM [falling, full curve, poor fit]"
2,Cc1cc(=O)oc2cc(OCC(=O)OCC(=O)NC(=O)NC(C)C)ccc12,"6.31 µM [rising, single point]"
3,CC(C)(C)NCC(O)COc1ccccc1C1CCCC1 (stereo not drawn),"29.1 µM [falling, single point]"
4,Cn1cc(Br)c(C(=O)NNC(=O)Nc2ccccc2C(F)(F)F)n1,"4.47 µM [falling, partial curve, poor fit]"
5,O=C(NCc1cccs1)c1ccc(N2CCCC2=O)cc1,"0.00731 µM [rising, full curve, poor fit]"
6,Cc1cccc(NC(=O)CSc2nc3n[nH]c(C)c3c(=N)n2-c2cccc(Cl)c2)c1,"12.6 µM [falling, partial curve, poor fit]"
7,Cc1ccc(CSCC(=O)Nc2ccc(F)cc2)cc1,"11.6 µM [falling, partial curve, poor fit]"
8,Cc1ccc(Nc2nc(-c3ccc(O)cc3O)cs2)nc1,"12.6 µM [falling, partial curve, poor fit]"
9,CCOc1ccc(NC(=O)c2cnccn2)cc1,"11.6 µM [falling, partial curve]"
10,O=C(c1ccccc1S(=O)(=O)NCc1ccccc1)N1CCCC1,"29.1 µM [rising, single point]"
11,CCC1Oc2ccc(C)cc2N(CC(=O)NCc2cccc(OC)c2)C1=O (stereo not drawn),"0.1 µM [falling, full curve, poor fit]"
12,CCNC(=O)NNC(=O)C1CC(c2cccs2)=NO1 (stereo not drawn),"31.6 µM [rising, partial curve, poor fit]"
13,Cc1cc(C)n2nc(S(=O)(=O)Nc3c(Cl)cccc3Cl)nc2n1,"0.1 µM [rising, full curve, poor fit]"
14,CCCNC(=O)N1CCN(c2nc(C(C)C)c3c(c2C#N)CC(C)(C)OC3)CC1,"6.51 µM [rising, single point]"
15,COC(=O)CSc1nnc(CNC(=O)c2cc(OC)cc(OC)c2)n1-c1ccc(F)cc1,"2.82 µM [falling, full curve, poor fit]"
16,O=C(Nc1cccc(O)c1)c1ccc(C(=O)c2ccccc2)o1,"20 µM [falling, single point]"
17,Cc1sc2ncnc(N3CCC(C(=O)NNC(=O)COc4ccc(Br)cc4)CC3)c2c1C,"29.1 µM [falling, single point]"
18,O=C(COc1ccccc1)Nc1cccc(-c2nc3ccccc3[nH]2)c1,"3.26 µM [falling, partial curve]"
19,Cn1c(-c2ccc3ccccc3n2)nc2cnccc21,"0.447 µM [rising, full curve, poor fit]"
20,COc1cccc(C(=O)NC(Cc2ccccc2)c2ccc3c(c2)OCCCO3)c1 (stereo not drawn),"4.11 µM [falling, full curve, poor fit]"
21,Cc1cc(/C=N/NC(=O)c2cccs2)c(C)n1-c1ccccc1,"18.4 µM [falling, single point]"

# Copied from the list:
# AC50, Cc1ccc(Nc2nc(-c3ccc(O)cc3O)cs2)nc1 is entered as 12.6 µM [falling, partial curve, poor fit]
# AC50, O=C(COc1ccccc1)Nc1cccc(-c2nc3ccccc3[nH]2)c1 is entered as 3.26 µM [falling, partial curve]
# AC50, COc1cccc(C(=O)NC(Cc2ccccc2)c2ccc3c(c2)OCCCO3)c1 (stereo not drawn) is entered as 4.11 µM [falling, full curve, poor fit]
